PubChem BioAssay AID1259308 | NCATS | 2017

- Aim: 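Candidate targets for better recombinant protein yield in mammalian cells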 (primary screen)
- Cells: human HEK293 embryonic kidney cells stably expressing firefly luciferase (HEK-CMV-Luc2-Hygro)
- Reagents: single siRNA against human genes, 0.8 pmol siRNA per well
- Time to read-out: 72 h
- Measurement: 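Luciferase light (ONE-Glo) measured on one replicate plate set and viability (CellTiter-Glo) on the other, scaled to a negative control siRNA, with robust z-scores and luciferase per cell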
- Direction: total luciferase, z-score and total luciferase, % of control: higher = more reporter protein produced; luciferase per cell, z-score: higher = more reporter output per viable cell; viable cells, % of control: higher = more viable cells
- Active means: 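An siRNA counts as active if its total luciferase robust z-score exceeds 3; genes with two or more such siRNAs out of three were retested with fresh siRNAs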
- Calls: active = raised luciferase; inactive = no rise
Shown is a random part of about 59,000 reagents. Of all reagents, about 1,510 (2.6%) were called active. 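Calls use total luciferase alone and ignore viability, so some active siRNAs may act by altering cell number.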 The numbers tell different reagents against one gene apart.

| target gene | reagent no. | total luciferase, z-score | total luciferase, % of control | luciferase per cell, z-score | viable cells, % of control | outcome |
| --- | --- | --- | --- | --- | --- | --- |
| CTNND1 | 1 | -0.396 | 74 | -0.343 | 90.5 | inactive |
| CTNND1 | 2 | -0.897 | 64 | -1.1 | 95.5 | inactive |
| CTNND1 | 3 | 1.67 | 115 | 0.976 | 99.4 | inactive |
| RHBDD1 | 1 | -0.342 | 75.1 | -0.909 | 107 | inactive |
| RHBDD1 | 2 | -0.486 | 72.2 | -0.497 | 92 | inactive |
| RHBDD1 | 3 | 1.39 | 110 | 0.881 | 97.1 | inactive |
| ASIC3 | 1 | 0.0239 | 82.4 | -0.211 | 97.3 | inactive |
| ASIC3 | 2 | 2.73 | 136 | 1.85 | 93.4 | inactive |
| ASIC3 | 3 | -0.244 | 77 | -0.743 | 105 | inactive |
| PAMR1 | 1 | 0.587 | 93.6 | 0.213 | 98.8 | inactive |
| PAMR1 | 2 | -0.686 | 68.2 | -0.0668 | 77.6 | inactive |
| PAMR1 | 3 | -0.415 | 73.6 | 0.314 | 75.7 | inactive |
| SNX5 | 1 | -0.439 | 73.1 | -0.654 | 97.1 | inactive |
| SNX5 | 2 | 0.0431 | 82.7 | 0.838 | 74.2 | inactive |
| SNX5 | 3 | 0.338 | 88.6 | 0.634 | 83.8 | inactive |
| GTF2B | 1 | -0.43 | 73.3 | 0.928 | 64.2 | inactive |
| GTF2B | 2 | -0.389 | 74.1 | -0.104 | 85.1 | inactive |
| GTF2B | 3 | -2.49 | 32.3 | -1.46 | 53 | inactive |
| SNRPF | 1 | 3.7 | 155 | 4.38 | 54.9 | active |
| SNRPF | 2 | 3.39 | 149 | 2.82 | 79.4 | active |
| SNRPF | 3 | 0.665 | 95.1 | 2.14 | 60.4 | inactive |
| ENTHD1 | 1 | 1.86 | 119 | 2.09 | 76.7 | inactive |
| ENTHD1 | 2 | -0.473 | 72.5 | -0.529 | 93.1 | inactive |
| ENTHD1 | 3 | 0.264 | 87.1 | 0.284 | 90.4 | inactive |
| ZPBP2 | 1 | -1.69 | 48.3 | -1.53 | 80.7 | inactive |
| ZPBP2 | 2 | 0.634 | 94.5 | 0.376 | 95.6 | inactive |
| ZPBP2 | 3 | -0.315 | 75.6 | -0.687 | 101 | inactive |
| LDHD | 1 | -0.235 | 77.2 | -0.13 | 89.3 | inactive |
| LDHD | 2 | -0.225 | 77.4 | 0.0591 | 85.2 | inactive |
| LDHD | 3 | -0.643 | 69.1 | -0.0451 | 78.1 | inactive |
| GCC2 | 1 | -0.212 | 77.7 | 0.961 | 67.4 | inactive |
| GCC2 | 2 | -0.349 | 74.9 | -0.224 | 88.8 | inactive |
| GCC2 | 3 | 0.739 | 96.6 | 1.26 | 77.4 | inactive |
| GP1BB | 1 | 0.131 | 84.5 | 0.0618 | 92.9 | inactive |
| GP1BB | 2 | -0.705 | 67.9 | -0.371 | 83.6 | inactive |
| GP1BB | 3 | 2.06 | 123 | 1.51 | 92.3 | inactive |
| SLC26A3 | 1 | 0.0457 | 82.8 | 0.0932 | 90.3 | inactive |
| SLC26A3 | 2 | 0.698 | 95.8 | 0.655 | 90.1 | inactive |
| SLC26A3 | 3 | -0.837 | 65.2 | -1.01 | 95.2 | inactive |
| NGRNP1 | 1 | 0.274 | 87.3 | 0.505 | 85.5 | inactive |
| NGRNP1 | 2 | 2.9 | 139 | 2.55 | 79.5 | inactive |
| NGRNP1 | 3 | 1.1 | 104 | 1.4 | 80.3 | inactive |
| PHTF1 | 1 | -0.365 | 74.6 | -0.392 | 92.5 | inactive |
| PHTF1 | 2 | 3.01 | 142 | 2.16 | 89.7 | active |
| PHTF1 | 3 | -0.0267 | 81.4 | 0.6 | 77.6 | inactive |
| ABCE1 | 1 | -2.35 | 35.2 | -2.71 | 80.4 | inactive |
| ABCE1 | 2 | -0.688 | 68.2 | -0.00962 | 76.4 | inactive |
| ABCE1 | 3 | -1.87 | 44.6 | -1.54 | 74.7 | inactive |
| C1orf185 | 1 | 0.741 | 96.6 | -0.0732 | 110 | inactive |
| C1orf185 | 2 | -0.691 | 68.1 | -1.3 | 107 | inactive |
| C1orf185 | 3 | -0.084 | 80.2 | -0.34 | 98 | inactive |
| ELFN2 | 1 | -0.575 | 70.5 | -0.311 | 85.4 | inactive |
| ELFN2 | 2 | 1.26 | 107 | 1.01 | 91.7 | inactive |
| ELFN2 | 3 | 0.119 | 84.2 | -0.408 | 105 | inactive |
| ACTMAP | 1 | -2.61 | 29.9 | -2.23 | 60.2 | inactive |
| ACTMAP | 2 | -1.45 | 52.9 | -1.88 | 97 | inactive |
| ACTMAP | 3 | -1.65 | 49 | -1.59 | 83.2 | inactive |

Active calls, among the entries above:
| target gene | reagent no. | total luciferase, z-score | total luciferase, % of control | luciferase per cell, z-score | viable cells, % of control | outcome |
| --- | --- | --- | --- | --- | --- | --- |
| SNRPF | 1 | 3.7 | 155 | 4.38 | 54.9 | active |
| SNRPF | 2 | 3.39 | 149 | 2.82 | 79.4 | active |
| PHTF1 | 2 | 3.01 | 142 | 2.16 | 89.7 | active |
